Drawing on PMC7527347, this text covers binding for one molecule.

Chains of the proteins cited; added tags and fusions are not shown. Residues count along the entry.
UniProt Q04206: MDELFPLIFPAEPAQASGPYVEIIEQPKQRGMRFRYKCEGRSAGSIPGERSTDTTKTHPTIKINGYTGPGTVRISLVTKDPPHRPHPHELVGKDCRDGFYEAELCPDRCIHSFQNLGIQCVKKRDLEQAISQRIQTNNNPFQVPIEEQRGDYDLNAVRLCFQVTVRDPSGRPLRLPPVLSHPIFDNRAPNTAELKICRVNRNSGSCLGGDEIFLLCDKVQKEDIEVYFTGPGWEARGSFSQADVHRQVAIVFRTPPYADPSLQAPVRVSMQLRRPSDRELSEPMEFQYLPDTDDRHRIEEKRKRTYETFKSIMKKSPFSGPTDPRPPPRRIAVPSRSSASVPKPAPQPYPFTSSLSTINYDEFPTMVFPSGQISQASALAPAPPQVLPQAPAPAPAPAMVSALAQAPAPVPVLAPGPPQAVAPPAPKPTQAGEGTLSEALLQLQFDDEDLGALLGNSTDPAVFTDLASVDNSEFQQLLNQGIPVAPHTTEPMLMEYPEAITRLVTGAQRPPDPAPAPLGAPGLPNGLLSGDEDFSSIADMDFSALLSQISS
UniProt P19838, residues 1-433: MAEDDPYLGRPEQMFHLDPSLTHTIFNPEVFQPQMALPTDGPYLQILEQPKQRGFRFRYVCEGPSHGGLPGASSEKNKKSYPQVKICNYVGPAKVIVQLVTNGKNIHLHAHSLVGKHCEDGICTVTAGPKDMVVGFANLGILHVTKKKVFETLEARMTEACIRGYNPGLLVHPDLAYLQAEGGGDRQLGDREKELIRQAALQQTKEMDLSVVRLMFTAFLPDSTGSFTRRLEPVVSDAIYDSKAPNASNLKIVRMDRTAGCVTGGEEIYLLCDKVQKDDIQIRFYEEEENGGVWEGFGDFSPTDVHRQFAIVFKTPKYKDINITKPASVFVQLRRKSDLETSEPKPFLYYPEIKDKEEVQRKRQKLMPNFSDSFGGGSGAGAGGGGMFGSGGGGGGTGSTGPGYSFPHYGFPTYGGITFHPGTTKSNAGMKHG

The target of test [1] is NF-κB p65/RelA (human (endogenous in HEK-293T)) (UniProt Q04206). Nature of the test: co-IP; extracts from HEK-293T cells transfected with the HA-tagged proteins; association with p65/RelA and p50 read by Western blot. (In general: A western blot detects proteins with antibodies after separation by electrophoresis.)
Test [2] concerns the target NF-κB p50 (human (endogenous in HEK-293T)) (UniProt P19838). The test is described as above.

Results are given in words; binding and its absence hold for the method and conditions named. In cells and extracts the contact can be indirect. Where a sequence is shown, tags or fusion partners need not be part of it.

B1: HA-tagged NFKI-1 (protein, UniProt G5EDE9 1-611)
chain: MATVAPKGNCLVARAIPSDSHADQLTDLLCKLSVNGDANQKSVNKFESQHGVTPSDFRDIQNIRSSALAKKTKTSKFQLDGVTLFADLTPNSKSKKKTENQETKEKDEEAEEKKDGPPKDDKELKMKKEKEQEDENAELDEQKKDGDLLGRGPVHNVRVATGGSHPYHRAQIPYGCAAQTPITDISAYTGYGSGYECGSTWSLSPDTTIGSISASTTPDTVLSSDGYGSASPPQHSPKESLQSPFSDISSADTSRVLTPENNELPESLQDFILQYSNQYTKEESIRGRPPSADSGVSSPMSARSAPYASPHVPQGTCSGPTTPSFNQTRLSPRTSENGITAKQRLNAIIPESDLATGFHWACTTWKNVLTNRDADGDTPLHIVAAHNDLGKIYALCETLRKTMNENDDNVFNVSNNFGETPLYVAVLQRSIEVVEYLLELGASPNSRSSRAVGDSPLHFATARGMNNMVEALLSKREIRVNETNDDGQTSLLCAVKMHGMMDEQTQHKIDNKSIIEMLIKAGADPTIAETSTGKTIVHHAVDKMDVELLDFLKTVVNEDTFTELANLSDFHGDTAVDLLCSSTQNEDTNNVRENLYIRLLTSGAVPNKSRA
With B1, the binding entry in test [1] and in test [2] was “no binding” each time.
